# Data from the supplement of paper PMC6411743.
# The chains behind the UniProt entries cited, without tags or fusion partners. Where a name states a change or a piece, a line headed by the entry shows the natural chain unless it says otherwise.
# UniProt O75410: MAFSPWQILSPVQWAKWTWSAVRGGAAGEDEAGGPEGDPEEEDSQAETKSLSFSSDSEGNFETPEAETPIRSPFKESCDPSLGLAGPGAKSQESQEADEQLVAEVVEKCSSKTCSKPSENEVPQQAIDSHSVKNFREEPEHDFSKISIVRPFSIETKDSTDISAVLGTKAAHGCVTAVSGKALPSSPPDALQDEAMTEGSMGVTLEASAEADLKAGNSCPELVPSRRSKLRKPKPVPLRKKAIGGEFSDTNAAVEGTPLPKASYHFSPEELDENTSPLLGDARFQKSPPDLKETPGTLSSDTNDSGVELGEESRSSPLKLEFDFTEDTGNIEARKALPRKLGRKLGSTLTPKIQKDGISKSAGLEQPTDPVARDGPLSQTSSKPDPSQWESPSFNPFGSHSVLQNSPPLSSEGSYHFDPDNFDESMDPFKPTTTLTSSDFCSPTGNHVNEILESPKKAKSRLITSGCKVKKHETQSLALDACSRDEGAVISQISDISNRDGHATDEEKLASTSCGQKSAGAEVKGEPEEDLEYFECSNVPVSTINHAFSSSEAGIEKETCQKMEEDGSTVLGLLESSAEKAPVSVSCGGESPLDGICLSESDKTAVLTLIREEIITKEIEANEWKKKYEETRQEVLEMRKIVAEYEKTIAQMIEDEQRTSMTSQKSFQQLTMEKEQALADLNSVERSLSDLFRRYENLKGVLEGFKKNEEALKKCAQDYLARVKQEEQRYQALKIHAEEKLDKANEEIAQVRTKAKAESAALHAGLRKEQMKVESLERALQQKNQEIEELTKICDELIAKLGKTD
# UniProt O94776: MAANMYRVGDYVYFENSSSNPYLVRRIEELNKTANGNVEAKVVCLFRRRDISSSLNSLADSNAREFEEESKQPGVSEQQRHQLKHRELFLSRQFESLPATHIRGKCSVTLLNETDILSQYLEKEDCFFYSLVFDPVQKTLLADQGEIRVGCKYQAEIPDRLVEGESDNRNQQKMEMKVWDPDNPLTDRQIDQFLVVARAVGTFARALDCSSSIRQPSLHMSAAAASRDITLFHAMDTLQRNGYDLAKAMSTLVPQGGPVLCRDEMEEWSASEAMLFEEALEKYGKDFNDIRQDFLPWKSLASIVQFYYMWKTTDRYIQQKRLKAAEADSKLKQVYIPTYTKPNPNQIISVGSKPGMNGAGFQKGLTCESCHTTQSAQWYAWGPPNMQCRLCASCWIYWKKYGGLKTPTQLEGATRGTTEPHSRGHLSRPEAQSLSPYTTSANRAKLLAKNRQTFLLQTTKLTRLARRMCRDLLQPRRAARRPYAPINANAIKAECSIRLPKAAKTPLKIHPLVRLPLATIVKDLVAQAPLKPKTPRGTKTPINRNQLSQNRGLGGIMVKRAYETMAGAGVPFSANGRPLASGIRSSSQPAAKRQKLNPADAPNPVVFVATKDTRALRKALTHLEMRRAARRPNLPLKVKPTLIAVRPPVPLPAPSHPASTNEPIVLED
# UniProt O75915: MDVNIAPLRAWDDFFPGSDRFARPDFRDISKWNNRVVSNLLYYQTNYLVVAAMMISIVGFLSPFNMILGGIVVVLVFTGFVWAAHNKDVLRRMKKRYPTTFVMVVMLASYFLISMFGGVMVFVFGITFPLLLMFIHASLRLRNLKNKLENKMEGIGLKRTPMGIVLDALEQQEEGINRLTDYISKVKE
# UniProt O60880: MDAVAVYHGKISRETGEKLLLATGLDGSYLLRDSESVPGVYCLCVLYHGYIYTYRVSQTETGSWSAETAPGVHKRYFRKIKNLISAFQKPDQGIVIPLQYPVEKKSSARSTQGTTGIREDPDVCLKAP
# UniProt O60493, whole entry: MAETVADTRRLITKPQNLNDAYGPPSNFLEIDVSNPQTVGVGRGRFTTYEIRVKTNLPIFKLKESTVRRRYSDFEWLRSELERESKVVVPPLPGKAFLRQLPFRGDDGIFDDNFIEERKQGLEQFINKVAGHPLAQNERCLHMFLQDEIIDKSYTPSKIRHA
# UniProt O95455: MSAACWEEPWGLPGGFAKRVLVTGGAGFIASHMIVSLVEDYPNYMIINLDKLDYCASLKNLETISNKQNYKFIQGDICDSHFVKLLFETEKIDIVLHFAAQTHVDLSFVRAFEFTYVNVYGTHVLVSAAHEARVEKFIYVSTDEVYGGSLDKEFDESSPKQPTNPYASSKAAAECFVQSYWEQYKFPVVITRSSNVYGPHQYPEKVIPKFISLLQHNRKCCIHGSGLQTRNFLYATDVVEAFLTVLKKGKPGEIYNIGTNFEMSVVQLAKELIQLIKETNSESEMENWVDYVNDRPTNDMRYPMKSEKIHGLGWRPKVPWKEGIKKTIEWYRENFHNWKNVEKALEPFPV
# UniProt O95571: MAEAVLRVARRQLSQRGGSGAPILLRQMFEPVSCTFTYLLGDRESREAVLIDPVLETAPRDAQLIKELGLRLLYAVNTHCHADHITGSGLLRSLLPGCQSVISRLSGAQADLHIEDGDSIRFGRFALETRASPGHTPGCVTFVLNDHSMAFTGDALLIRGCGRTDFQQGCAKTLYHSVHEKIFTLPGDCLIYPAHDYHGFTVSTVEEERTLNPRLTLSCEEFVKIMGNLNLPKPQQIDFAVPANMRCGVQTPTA
# UniProt O75131: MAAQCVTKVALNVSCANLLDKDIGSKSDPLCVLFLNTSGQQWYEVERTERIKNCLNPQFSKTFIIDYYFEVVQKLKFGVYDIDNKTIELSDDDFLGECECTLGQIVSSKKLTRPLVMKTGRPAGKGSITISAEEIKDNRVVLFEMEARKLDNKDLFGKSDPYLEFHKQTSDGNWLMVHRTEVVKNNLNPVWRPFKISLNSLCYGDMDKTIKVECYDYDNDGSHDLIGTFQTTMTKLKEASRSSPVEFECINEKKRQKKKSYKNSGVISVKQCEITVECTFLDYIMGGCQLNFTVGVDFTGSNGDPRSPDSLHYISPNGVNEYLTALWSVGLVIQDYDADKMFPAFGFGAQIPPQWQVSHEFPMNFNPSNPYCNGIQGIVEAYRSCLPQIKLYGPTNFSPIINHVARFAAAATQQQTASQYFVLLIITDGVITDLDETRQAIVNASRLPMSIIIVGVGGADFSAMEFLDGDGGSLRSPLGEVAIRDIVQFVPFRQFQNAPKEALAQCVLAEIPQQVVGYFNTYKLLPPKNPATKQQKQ
# UniProt O75695: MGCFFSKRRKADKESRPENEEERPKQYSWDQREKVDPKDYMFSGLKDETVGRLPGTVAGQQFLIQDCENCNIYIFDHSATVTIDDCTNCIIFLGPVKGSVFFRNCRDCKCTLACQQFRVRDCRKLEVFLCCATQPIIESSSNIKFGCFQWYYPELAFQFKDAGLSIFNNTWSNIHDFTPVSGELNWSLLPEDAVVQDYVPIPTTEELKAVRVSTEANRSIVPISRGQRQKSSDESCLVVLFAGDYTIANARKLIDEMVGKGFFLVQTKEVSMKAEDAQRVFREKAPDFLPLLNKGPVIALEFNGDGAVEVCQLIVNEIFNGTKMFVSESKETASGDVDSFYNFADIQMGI
# UniProt O43929: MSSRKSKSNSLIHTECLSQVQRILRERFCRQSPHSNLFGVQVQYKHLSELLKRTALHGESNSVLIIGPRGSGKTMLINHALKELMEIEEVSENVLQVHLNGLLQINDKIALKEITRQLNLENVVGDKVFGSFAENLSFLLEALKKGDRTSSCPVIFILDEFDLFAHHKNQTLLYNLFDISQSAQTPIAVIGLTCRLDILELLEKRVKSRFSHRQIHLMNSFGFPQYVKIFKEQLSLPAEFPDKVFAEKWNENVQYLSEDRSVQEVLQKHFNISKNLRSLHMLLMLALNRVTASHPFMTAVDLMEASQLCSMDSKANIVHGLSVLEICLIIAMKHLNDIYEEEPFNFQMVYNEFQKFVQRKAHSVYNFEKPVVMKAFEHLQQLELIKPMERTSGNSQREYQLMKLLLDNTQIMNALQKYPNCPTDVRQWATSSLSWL
# UniProt O60784, whole entry: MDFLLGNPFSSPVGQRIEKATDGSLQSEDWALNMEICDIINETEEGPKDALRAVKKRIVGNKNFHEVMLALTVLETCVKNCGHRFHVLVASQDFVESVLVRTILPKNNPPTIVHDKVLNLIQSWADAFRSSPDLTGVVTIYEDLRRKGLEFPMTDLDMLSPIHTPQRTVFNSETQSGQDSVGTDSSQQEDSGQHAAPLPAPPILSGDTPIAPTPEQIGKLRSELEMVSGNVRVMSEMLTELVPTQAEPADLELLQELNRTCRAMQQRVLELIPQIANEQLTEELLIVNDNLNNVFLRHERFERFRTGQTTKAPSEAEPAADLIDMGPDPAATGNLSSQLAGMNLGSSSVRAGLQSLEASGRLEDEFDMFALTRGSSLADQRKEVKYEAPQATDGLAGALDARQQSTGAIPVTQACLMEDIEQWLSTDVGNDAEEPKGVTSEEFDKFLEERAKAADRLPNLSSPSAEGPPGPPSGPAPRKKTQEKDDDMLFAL
# UniProt O95391: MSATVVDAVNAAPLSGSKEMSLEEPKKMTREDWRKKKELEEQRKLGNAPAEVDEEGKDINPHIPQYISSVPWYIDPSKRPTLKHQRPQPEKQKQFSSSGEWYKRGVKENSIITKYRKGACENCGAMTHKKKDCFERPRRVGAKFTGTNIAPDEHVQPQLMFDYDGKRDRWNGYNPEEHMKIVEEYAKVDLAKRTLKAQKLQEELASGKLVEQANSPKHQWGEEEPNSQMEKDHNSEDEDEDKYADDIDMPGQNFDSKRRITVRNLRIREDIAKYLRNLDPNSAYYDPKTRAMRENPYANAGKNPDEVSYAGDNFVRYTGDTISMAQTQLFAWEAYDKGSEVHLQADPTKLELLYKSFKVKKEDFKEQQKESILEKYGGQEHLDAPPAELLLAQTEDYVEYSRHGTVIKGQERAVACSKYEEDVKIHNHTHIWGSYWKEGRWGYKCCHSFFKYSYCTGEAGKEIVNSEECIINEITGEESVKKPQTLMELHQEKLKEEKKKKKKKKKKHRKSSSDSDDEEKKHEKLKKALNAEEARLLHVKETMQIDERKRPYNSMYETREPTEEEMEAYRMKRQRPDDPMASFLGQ
# UniProt O75323: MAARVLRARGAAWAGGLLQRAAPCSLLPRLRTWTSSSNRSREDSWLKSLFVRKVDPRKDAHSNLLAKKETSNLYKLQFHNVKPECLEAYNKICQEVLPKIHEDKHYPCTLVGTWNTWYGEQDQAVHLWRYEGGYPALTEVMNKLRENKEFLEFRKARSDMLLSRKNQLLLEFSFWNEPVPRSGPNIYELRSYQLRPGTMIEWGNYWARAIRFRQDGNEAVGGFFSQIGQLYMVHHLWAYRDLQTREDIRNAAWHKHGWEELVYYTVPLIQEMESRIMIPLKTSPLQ
# UniProt O60268: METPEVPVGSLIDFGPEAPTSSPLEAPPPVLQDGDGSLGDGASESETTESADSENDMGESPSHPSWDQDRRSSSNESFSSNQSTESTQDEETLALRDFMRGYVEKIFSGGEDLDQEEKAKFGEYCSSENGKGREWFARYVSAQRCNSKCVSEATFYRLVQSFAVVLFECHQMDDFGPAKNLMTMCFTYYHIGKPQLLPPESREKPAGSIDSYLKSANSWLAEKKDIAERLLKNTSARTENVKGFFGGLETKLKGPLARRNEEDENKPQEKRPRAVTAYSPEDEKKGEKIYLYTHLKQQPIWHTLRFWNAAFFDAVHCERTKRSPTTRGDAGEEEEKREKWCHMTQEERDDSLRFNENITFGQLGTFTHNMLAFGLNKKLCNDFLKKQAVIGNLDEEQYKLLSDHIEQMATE
# UniProt O60925, whole entry: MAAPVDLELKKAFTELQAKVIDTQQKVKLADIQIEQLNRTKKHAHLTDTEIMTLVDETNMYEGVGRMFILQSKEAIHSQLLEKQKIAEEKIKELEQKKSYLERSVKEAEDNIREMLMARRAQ
# UniProt O60906: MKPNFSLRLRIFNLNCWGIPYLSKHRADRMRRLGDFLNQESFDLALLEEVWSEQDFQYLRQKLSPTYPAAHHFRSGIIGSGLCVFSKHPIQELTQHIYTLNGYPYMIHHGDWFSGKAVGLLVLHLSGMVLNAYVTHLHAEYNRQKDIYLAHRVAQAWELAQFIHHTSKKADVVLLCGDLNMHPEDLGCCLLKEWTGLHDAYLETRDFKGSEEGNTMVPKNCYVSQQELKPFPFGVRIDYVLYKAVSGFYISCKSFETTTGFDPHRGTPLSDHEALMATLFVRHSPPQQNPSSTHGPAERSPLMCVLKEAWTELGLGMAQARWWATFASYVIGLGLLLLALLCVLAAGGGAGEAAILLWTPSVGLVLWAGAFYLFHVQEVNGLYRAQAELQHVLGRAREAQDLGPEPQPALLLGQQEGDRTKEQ
# UniProt O60870: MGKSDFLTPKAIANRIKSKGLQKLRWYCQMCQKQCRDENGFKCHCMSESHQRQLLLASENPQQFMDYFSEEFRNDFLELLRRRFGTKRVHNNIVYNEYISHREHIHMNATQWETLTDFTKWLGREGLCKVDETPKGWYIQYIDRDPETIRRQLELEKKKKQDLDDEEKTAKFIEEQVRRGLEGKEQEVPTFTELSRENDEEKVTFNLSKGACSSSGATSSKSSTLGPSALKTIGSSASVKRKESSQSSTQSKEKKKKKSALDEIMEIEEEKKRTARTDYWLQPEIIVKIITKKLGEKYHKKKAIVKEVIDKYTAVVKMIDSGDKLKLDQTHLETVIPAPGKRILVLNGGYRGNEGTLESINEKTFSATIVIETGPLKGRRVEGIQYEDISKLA
# ± gives the standard deviation of the averaged measurements. The list shows a part of the results, in another mix than the full data.
# Compound: Nc1ncnc2c1ncn2[C@@H]1O[C@H](COP(=O)(O)OP(=O)(O)NP(=O)(O)O)[C@@H](O)[C@H]1O [adenylyl imidodiphosphate]
# Experiment: NP40-soluble protein abundance relative to vehicle (solubility fold change) (ratio); higher = more soluble protein in presence of AMP-PNP
# Method in brief: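 In three independent experiments, Jurkat crude lysate made by Dounce homogenisation was treated for 10 min at room temperature and then 3 min at 37 °C with eight concentrations ranging from 0.1 to 10 mM. It was then solubilised with 0.8% NP40 plus benzonase for 60 min at 4 °C and ultracentrifuged. The supernatant was TMT-labelled for LC-MS/MS, and each value is the fold change against the detergent-processed vehicle for the same replicate, using vsn-normalised intensities.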
Target,NP40-soluble protein abundance (concentration: 1mM),NP40-soluble protein abundance (concentration: 2mM),NP40-soluble protein abundance (concentration: 4mM),NP40-soluble protein abundance (concentration: 6mM),NP40-soluble protein abundance (concentration: 8mM),NP40-soluble protein abundance (concentration: 10mM)
IPO7 (UniProt O95373),0.984 ± 0.023,0.96 ± 0.014,0.978 ± 0.03,1.01 ± 0.016,1.02 ± 0.021,0.987 ± 0.04
UniProt O60645 and related entries,1.03 ± 0.036,0.997 ± 0.041,1.025 ± 0.0081,1.01 ± 0.015,0.985 ± 0.017,0.998 ± 0.018
TACC1 (UniProt O75410),1.04 ± 0.013,1.07 ± 0.066,1.03 ± 0.034,0.985 ± 0.02,0.9658 ± 0.0052,0.97 ± 0.022
UniProt O75582 and related entries,1 ± 0.047,0.966 ± 0.065,1.02 ± 0.057,1 ± 0.025,1.006 ± 0.0043,0.9977 ± 0.005
COQ9 (UniProt O75208),0.957 ± 0.023,0.98 ± 0.027,0.939 ± 0.045,0.985 ± 0.046,0.977 ± 0.11,0.937 ± 0.11
MTA2 (UniProt O94776),0.978 ± 0.026,0.953 ± 0.047,0.971 ± 0.05,1.01 ± 0.03,1.02 ± 0.048,1.05 ± 0.097
ARL6IP5 (UniProt O75915),0.971 ± 0.061,0.926 ± 0.059,0.957 ± 0.048,0.991 ± 0.061,0.972 ± 0.019,0.98 ± 0.052
UniProt O60880 and related entries,0.868 ± 0.025,0.926 ± 0.025,0.893 ± 0.054,0.873 ± 0.021,0.843 ± 0.029,0.823 ± 0.04
SNX3 (UniProt O60493),1.04 ± 0.055,1.12 ± 0.026,1.02 ± 0.096,0.993 ± 0.02,0.961 ± 0.028,0.993 ± 0.11
TGDS (UniProt O95455),0.989 ± 0.016,0.969 ± 0.032,0.973 ± 0.016,0.982 ± 0.034,0.993 ± 0.028,0.988 ± 0.039
ZBTB11 (UniProt O95625),1.006 ± 0.006,1.02 ± 0.064,0.9913 ± 0.0086,0.9761 ± 0.0067,0.979 ± 0.045,0.974 ± 0.017
UniProt O95571 and related entries,1.006 ± 0.0088,0.967 ± 0.019,1.019 ± 0.008,0.967 ± 0.017,0.994 ± 0.044,0.968 ± 0.02
CPNE3 (UniProt O75131),0.965 ± 0.021,0.91 ± 0.064,0.9982 ± 0.0081,1.07 ± 0.13,1.08 ± 0.11,1.03 ± 0.059
RP2 (UniProt O75695),0.989 ± 0.044,0.9689 ± 0.0046,0.996 ± 0.044,0.952 ± 0.022,0.967 ± 0.032,0.94 ± 0.017
UniProt O75390 and related entries,0.966 ± 0.094,0.834 ± 0.23,0.977 ± 0.042,0.846 ± 0.26,0.941 ± 0.088,0.897 ± 0.12
UniProt O60333-3|O60333 and related entries,0.948 ± 0.04,0.943 ± 0.044,0.961 ± 0.026,0.996 ± 0.06,0.984 ± 0.049,0.955 ± 0.05
GMDS (UniProt O60547),1.02 ± 0.021,0.949 ± 0.095,1.02 ± 0.035,0.965 ± 0.026,1.03 ± 0.047,0.95 ± 0.024
UniProt O43929 and related entries,0.941 ± 0.06,0.921 ± 0.05,0.961 ± 0.044,0.954 ± 0.039,0.981 ± 0.016,0.947 ± 0.051
UniProt O60784 and related entries,1.02 ± 0.03,1.07 ± 0.11,1.07 ± 0.032,0.984 ± 0.024,0.974 ± 0.024,0.983 ± 0.052
SLU7 (UniProt O95391),1.04 ± 0.022,1.04 ± 0.042,1.04 ± 0.026,1.04 ± 0.024,1.03 ± 0.045,1.1 ± 0.032
KBTBD11 (UniProt O94819),0.993 ± 0.042,0.999 ± 0.031,0.99 ± 0.039,1.02 ± 0.048,1 ± 0.026,1.02 ± 0.042
UniProt O75323,0.989 ± 0.024,0.925 ± 0.076,0.9452 ± 0.0027,0.9553 ± 0.0082,0.978 ± 0.014,0.93 ± 0.0087
UniProt O60268 and related entries,0.998 ± 0.063,1.03 ± 0.04,1.01 ± 0.057,1.02 ± 0.093,0.994 ± 0.042,1.02 ± 0.066
PFDN1 (UniProt O60925),1 ± 0.038,1.02 ± 0.068,0.94 ± 0.042,0.95 ± 0.056,0.876 ± 0.026,0.908 ± 0.044
SMPD2 (UniProt O60906),1.01 ± 0.023,1.02 ± 0.043,1.03 ± 0.047,1.01 ± 0.015,0.996 ± 0.027,1.01 ± 0.039
KIN (UniProt O60870),1.02 ± 0.031,1.03 ± 0.015,1.046 ± 0.0083,1.06 ± 0.03,1.05 ± 0.011,1.06 ± 0.012

# Just NP40-soluble protein abundance (concentration: 6mM), for some of the entries so far:
Target	NP40-soluble protein abundance (concentration: 6mM)
UniProt O75323	0.9553 ± 0.0082
UniProt O60268 and related entries	1.02 ± 0.093
